# Test results reported in the supplement of paper PMC12009310.
# Where a name gives a salt, the structure may show the parent alone. ± gives the standard deviation of the averaged measurements. The list shows a part of the results. Part of the spread comes from offsets between plates or batches.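 A mouse kidney inner medullary collecting duct cell line was silenced for the ciliary gene Rpgrip1l or given non-targeting control siRNA. Primary scores average two runs versus batch controls. In follow-up screening, hits raised cilia at least 2 over matched controls; compounds lowering cell number by 2 or more were excluded. The cells are a mouse kidney inner medullary collecting duct line, silenced either for the ciliary gene Rpgrip1l or with a non-targeting control siRNA.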
# Columns and labels:
# mIMCD3 [1] = assay: robust z score of cell number vs plate controls; higher = more cells (less cytotoxic); details: 10 µM, 48 h
# mIMCD3 [2] = assay: robust z score of cilia incidence (% cells with single cilium) vs plate controls; higher = more ciliated cells; details: 10 µM; 48 h; siRNA: siScr
# mIMCD3 [3] = assay: robust z score of cilia incidence (% cells with single cilium) vs plate controls; higher = more ciliated cells (rescue of cilia loss); details: 10 µM; 48 h; siRNA: siRpgrip1l
# mIMCD3 [4] = assay: robust z cell number difference from vehicle control (robust z score difference); higher = more cells; details: 10 µM, 48 h
# mIMCD3 [5] = assay: robust z cilia incidence difference from vehicle control (robust z score difference); higher = more ciliated cells; details: 10 µM; 48 h; siRNA: siScr
# mIMCD3 [6] = assay: robust z cilia incidence difference from vehicle control (robust z score difference); higher = more ciliated cells (rescue); details: 10 µM; 48 h; siRNA: siRpgrip1l
Compound,robust z score of cell number (mIMCD3 [1]; siRNA: siRpgrip1l),robust z score of cell number (mIMCD3 [1]; siRNA: siScr),robust z score of cilia incidence (mIMCD3 [2]),robust z score of cilia incidence (mIMCD3 [3]),robust z cell number difference (mIMCD3 [4]; siRNA: siRpgrip1l),robust z cell number difference (mIMCD3 [4]; siRNA: siScr),robust z cilia incidence difference (mIMCD3 [5]),robust z cilia incidence difference (mIMCD3 [6])
CN/C(=N\CCSCc1nc[nH]c1C)NC#N [Cimetidine],-19.2 ± 23,-0.956 ± 5.2,0.111 ± 1,-5.37 ± 1.7,–,–,–,–
COc1ccc(S(=O)(=O)N2c3ccc(Cl)cc3[C@](O)(c3ccccc3Cl)[C@@H]2C(=O)N2CCC[C@H]2C(N)=O)cc1OC,-6.01 ± 1.1,-0.36 ± 6.5,1.05 ± 0.67,-9.22 ± 6.1,–,–,–,–
CCOC(=O)C1=C(COCCN)NC(C)=C(C(=O)OC)C1c1ccccc1Cl (stereo not drawn) [Amlodipine besylate],-32.9 ± 10,-144 ± 110,-61.5 ± 14,-58.2 ± 4.8,–,–,–,–
CC(=O)Nc1ccc(O)cc1 [Acetaminophen],-1.63 ± 1.9,-3.16 ± 1.2,-0.845 ± 1,-20.3 ± 17,–,–,–,–
COP(=O)(OC)OC(c1ccc(Cl)cc1)P(=O)(OC)OC (stereo not drawn),-4.11 ± 0.68,-5.78 ± 6.3,-1.58 ± 2.8,-17.6 ± 15,–,–,–,–
CN(C)CCCN1c2ccccc2CCc2ccc(Cl)cc21 [Clomipramine hydrochloride],-15 ± 14,-16.7 ± 12,-0.808 ± 0.8,-4.28 ± 5.3,–,–,–,–
c1ccc(C(NCc2cccnc2)(c2ccccc2)c2ccccc2)cc1,-32.6 ± 10,-143 ± 110,-67.1 ± 18,-58.4 ± 6.4,–,–,–,–
Cl/C(=C\n1cncn1)c1ccc(Cl)cc1Cl [Loreclezole hydrochloride],-40.4 ± 28,-3.92 ± 0.84,3.62 ± 2.9,-7.13 ± 4.7,–,–,–,–
O=C(/C=C/c1c(C(=O)O)[nH]c2cc(Cl)cc(Cl)c12)Nc1ccccc1 [Gavestinel],-5.38 ± 2.7,2 ± 2.9,-1.74 ± 1.4,-9.24 ± 8.2,–,–,–,–
COc1ccc(NC(=O)c2ccc(-c3ccc(-c4noc(C)n4)cc3C)cc2)cc1OCCN(C)C,-308 ± 220,-40.6 ± 9.6,-52.6 ± 6.9,-34.6 ± 11,–,–,–,–
CCOC(=O)[C@H](CCc1ccccc1)N[C@@H](C)C(=O)N1Cc2cc(OC)c(OC)cc2C[C@H]1C(=O)O [Moexipril hydrochloride],-5.09 ± 3.1,-0.536 ± 2.7,1.63 ± 2.1,-5.26 ± 0.69,–,–,–,–
CC(C)Oc1ccc2c(=O)c3cc(C(=O)O)ccc3oc2c1,-11.7 ± 10,-20.5 ± 14,0.835 ± 2,-6.09 ± 8.6,–,–,–,–
Cc1ccc(/C=N/NC(=O)c2ccccc2Oc2ccccc2)o1,-25 ± 24,-12 ± 9.9,-16.9 ± 13,-20 ± 6.5,–,–,–,–
CN(Cc1ccccc1)C(=O)[C@H](Cc1ccc2ccccc2c1)NC(=O)[C@@H]1CCCN1C(=O)Nc1ccccc1[N+](=O)[O-],-21.3 ± 12,-20.3 ± 4.9,-22.4 ± 18,-27.8 ± 16,–,–,–,–
OCCN(CCO)c1nc(N2CCCCC2)c2nc(N(CCO)CCO)nc(N3CCCCC3)c2n1 [Dipyridamole],-9.17 ± 2.8,-9.56 ± 2.5,-11.6 ± 1.6,-22.6 ± 0.26,–,–,–,–
CCN1CCC[C@H]1CNC(=O)c1c(OC)ccc(Br)c1OC [Remoxipride hydrochloride],-3.04 ± 1.1,-0.211 ± 1.9,-4.35 ± 2.2,-10.1 ± 4,–,–,–,–
N#C/C(=C(/N)Sc1ccc(N)cc1)c1ccccc1C(F)(F)F,-53 ± 64,-12 ± 14,-4.63 ± 2.7,-16.7 ± 0.29,–,–,–,–
COc1c(C)c2c(c(O)c1C/C=C(\C)CCC(=O)O)C(=O)OC2 [Mycophenolic acid],-192 ± 220,-44.7 ± 11,-42.1 ± 11,-538 ± 300,–,–,–,–
NC(=O)N1C(=O)/C(=C(\O)c2cccs2)c2cc(Cl)ccc21 [Tenidap],-19.8 ± 8.7,-101 ± 85,-14.2 ± 7.4,-19.4 ± 7.2,–,–,–,–
CC1(C(=O)O)NCCc2cc(O)c(O)cc21 (stereo not drawn) [Salsolinol-1-carboxylic acid],-8.46 ± 6.3,-8.57 ± 16,0.698 ± 1.9,-10.2 ± 2.4,–,–,–,–
COc1ccc(CCN(C)CCCN2CCc3cc(OC)c(OC)cc3CC2=O)cc1OC [Zatebradine hydrochloride],0.661 ± 2,-4.86 ± 6,-0.247 ± 0.29,-10.3 ± 7.2,–,–,–,–
O=c1[nH]c2cc(Cl)ccc2c(O)c1-c1cccc(Oc2ccccc2)c1,-7.2 ± 1.2,-5.53 ± 3.8,2.88 ± 1.8,-6.65 ± 0.37,–,–,–,–
CC[C@@H]1C(=O)OC[C@@H]1Cc1cncn1C [Pilocarpine hydrochloride],-2.83 ± 2.5,1.19 ± 3.6,0.698 ± 1.8,-7.91 ± 0.93,–,–,–,–
CC(CCc1ccc(O)cc1)NCCc1ccc(O)c(O)c1 (stereo not drawn) [Dobutamine hydrochloride],-16.2 ± 15,-12.8 ± 8.9,-0.0742 ± 0.34,-16.7 ± 2,–,–,–,–
CCCNC(=O)N1N=C(c2ccc(N)cc2)c2cc3c(cc2C1C)OCO3 (stereo not drawn),-11.7 ± 0.51,-13.8 ± 11,-21.2 ± 6.2,-20.9 ± 3,–,–,–,–
O/N=C/c1ccc(-c2ccc(O)c(F)c2)c(Cl)c1O,-7.39 ± 3.9,-4.29 ± 1.6,-6.85 ± 12,-6.83 ± 1.6,–,–,–,–
Cc1c(C(=O)NN2CCCCC2)nn(-c2ccc(Cl)cc2Cl)c1-c1ccc(I)cc1,–,–,–,–,-16.3,-8.69 ± 10,-10.9 ± 16,-52.3

# Among those listed so far, these have fluorine.
Compound,robust z score of cell number (mIMCD3 [1]; siRNA: siRpgrip1l),robust z score of cell number (mIMCD3 [1]; siRNA: siScr),robust z score of cilia incidence (mIMCD3 [2]),robust z score of cilia incidence (mIMCD3 [3]),robust z cell number difference (mIMCD3 [4]; siRNA: siRpgrip1l),robust z cell number difference (mIMCD3 [4]; siRNA: siScr),robust z cilia incidence difference (mIMCD3 [5]),robust z cilia incidence difference (mIMCD3 [6])
N#C/C(=C(/N)Sc1ccc(N)cc1)c1ccccc1C(F)(F)F,-53 ± 64,-12 ± 14,-4.63 ± 2.7,-16.7 ± 0.29,–,–,–,–
O/N=C/c1ccc(-c2ccc(O)c(F)c2)c(Cl)c1O,-7.39 ± 3.9,-4.29 ± 1.6,-6.85 ± 12,-6.83 ± 1.6,–,–,–,–
